# The other results are listed elsewhere or left out.
# The chains behind the UniProt entries cited, without tags or fusion partners. Where a name states a change or a piece, a line headed by the entry shows the natural chain unless it says otherwise.
# UniProt O15116: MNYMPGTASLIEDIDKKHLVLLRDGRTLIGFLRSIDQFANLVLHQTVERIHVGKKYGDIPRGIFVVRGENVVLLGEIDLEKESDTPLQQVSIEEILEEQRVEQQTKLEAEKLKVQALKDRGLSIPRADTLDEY
# UniProt Q96II8: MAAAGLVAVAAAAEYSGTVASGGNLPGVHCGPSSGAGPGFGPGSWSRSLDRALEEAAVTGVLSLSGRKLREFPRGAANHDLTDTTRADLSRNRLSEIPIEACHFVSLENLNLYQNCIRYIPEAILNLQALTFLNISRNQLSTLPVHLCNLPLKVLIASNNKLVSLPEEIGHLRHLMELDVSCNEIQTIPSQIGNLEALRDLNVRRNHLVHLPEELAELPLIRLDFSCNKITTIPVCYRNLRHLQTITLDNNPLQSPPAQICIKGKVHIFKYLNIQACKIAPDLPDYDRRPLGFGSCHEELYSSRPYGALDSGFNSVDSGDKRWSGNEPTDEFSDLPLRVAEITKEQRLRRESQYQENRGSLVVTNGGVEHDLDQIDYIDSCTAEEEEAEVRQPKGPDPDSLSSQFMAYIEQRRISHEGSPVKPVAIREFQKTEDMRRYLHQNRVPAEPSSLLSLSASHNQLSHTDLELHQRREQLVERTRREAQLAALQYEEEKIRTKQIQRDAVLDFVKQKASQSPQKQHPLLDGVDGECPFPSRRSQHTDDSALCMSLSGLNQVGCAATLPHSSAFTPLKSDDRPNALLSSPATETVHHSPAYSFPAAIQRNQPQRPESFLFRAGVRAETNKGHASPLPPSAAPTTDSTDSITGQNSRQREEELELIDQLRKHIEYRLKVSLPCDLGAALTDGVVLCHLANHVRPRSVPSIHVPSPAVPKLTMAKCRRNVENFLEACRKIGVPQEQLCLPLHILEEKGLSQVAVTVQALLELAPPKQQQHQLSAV
# UniProt Q8N9N7: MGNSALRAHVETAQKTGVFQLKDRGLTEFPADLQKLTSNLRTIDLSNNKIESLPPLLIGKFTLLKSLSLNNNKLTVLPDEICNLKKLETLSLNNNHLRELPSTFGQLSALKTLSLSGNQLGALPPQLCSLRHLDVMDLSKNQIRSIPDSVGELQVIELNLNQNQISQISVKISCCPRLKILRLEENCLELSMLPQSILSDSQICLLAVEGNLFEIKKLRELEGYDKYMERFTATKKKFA
# UniProt P62310: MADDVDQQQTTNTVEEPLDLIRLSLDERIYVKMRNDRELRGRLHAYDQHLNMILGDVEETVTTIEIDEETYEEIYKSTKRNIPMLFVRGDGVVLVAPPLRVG
# UniProt P13796: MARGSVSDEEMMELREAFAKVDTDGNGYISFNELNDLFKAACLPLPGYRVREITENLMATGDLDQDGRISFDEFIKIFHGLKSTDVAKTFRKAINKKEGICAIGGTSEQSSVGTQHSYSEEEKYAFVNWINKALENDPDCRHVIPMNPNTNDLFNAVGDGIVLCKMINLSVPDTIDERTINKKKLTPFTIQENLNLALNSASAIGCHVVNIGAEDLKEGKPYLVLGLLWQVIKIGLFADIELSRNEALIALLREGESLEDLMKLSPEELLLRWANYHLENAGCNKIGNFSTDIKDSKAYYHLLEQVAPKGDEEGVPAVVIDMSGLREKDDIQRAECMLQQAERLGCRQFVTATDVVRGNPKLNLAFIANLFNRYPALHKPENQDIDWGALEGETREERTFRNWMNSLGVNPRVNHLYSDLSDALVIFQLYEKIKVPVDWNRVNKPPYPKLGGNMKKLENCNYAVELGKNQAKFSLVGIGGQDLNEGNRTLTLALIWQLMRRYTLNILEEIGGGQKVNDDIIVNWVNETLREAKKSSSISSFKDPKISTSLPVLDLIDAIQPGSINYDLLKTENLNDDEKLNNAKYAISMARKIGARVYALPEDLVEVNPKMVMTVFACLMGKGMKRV
# UniProt Q32MZ4: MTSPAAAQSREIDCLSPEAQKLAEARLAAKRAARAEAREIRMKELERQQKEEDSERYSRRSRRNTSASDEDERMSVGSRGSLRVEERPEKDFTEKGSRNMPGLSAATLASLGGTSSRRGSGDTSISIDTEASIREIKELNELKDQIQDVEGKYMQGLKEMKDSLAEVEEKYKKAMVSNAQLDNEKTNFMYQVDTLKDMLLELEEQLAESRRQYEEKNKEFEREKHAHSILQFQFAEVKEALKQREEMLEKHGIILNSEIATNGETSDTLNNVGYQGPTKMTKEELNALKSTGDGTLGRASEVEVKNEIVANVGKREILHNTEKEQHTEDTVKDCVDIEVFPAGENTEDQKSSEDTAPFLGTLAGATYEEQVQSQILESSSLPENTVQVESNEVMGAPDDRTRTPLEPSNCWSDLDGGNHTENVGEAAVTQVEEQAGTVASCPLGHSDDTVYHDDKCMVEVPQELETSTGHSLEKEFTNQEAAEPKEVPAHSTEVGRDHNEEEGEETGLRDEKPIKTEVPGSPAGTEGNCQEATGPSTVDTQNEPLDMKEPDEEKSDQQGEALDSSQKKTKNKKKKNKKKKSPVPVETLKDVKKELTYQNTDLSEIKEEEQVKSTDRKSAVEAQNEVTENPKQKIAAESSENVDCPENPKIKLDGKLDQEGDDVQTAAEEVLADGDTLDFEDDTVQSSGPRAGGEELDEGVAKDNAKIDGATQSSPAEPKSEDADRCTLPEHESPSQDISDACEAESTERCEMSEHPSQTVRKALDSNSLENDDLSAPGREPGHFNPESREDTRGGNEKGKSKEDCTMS
# UniProt P17931, whole entry, looked up: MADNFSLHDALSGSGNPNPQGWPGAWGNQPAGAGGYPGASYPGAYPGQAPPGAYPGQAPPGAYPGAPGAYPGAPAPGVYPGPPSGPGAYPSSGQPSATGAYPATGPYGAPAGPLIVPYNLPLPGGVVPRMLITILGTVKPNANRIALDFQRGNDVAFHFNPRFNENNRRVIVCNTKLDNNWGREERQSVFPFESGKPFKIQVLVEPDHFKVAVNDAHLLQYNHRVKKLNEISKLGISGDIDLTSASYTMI
# UniProt Q9UIQ6, whole entry, looked up: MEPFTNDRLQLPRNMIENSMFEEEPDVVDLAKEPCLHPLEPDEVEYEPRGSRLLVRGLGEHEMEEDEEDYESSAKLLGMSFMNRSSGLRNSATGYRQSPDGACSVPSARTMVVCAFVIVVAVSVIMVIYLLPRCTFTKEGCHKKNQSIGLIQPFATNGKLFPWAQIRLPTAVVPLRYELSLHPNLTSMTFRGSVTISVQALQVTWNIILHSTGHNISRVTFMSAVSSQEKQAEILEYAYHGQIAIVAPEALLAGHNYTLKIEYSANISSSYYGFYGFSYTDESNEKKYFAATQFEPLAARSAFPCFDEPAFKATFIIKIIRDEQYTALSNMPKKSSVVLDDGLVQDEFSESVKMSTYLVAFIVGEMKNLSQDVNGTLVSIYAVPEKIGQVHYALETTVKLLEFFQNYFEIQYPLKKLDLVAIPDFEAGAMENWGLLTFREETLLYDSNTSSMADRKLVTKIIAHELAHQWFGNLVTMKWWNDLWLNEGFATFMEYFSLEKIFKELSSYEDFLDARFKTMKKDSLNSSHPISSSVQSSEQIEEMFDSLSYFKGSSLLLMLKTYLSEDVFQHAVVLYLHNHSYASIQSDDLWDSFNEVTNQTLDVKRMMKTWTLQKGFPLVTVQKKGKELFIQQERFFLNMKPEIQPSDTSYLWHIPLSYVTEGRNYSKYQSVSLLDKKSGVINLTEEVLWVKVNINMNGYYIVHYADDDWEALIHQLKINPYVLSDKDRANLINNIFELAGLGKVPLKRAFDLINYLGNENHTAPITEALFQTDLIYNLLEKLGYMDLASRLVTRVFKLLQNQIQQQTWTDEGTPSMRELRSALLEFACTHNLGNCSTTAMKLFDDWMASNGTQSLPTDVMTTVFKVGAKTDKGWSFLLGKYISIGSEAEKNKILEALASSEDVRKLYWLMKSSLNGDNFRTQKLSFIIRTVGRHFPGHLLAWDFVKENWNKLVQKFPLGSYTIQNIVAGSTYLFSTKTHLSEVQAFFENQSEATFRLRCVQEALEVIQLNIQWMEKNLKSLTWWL
# UniProt Q8NG48: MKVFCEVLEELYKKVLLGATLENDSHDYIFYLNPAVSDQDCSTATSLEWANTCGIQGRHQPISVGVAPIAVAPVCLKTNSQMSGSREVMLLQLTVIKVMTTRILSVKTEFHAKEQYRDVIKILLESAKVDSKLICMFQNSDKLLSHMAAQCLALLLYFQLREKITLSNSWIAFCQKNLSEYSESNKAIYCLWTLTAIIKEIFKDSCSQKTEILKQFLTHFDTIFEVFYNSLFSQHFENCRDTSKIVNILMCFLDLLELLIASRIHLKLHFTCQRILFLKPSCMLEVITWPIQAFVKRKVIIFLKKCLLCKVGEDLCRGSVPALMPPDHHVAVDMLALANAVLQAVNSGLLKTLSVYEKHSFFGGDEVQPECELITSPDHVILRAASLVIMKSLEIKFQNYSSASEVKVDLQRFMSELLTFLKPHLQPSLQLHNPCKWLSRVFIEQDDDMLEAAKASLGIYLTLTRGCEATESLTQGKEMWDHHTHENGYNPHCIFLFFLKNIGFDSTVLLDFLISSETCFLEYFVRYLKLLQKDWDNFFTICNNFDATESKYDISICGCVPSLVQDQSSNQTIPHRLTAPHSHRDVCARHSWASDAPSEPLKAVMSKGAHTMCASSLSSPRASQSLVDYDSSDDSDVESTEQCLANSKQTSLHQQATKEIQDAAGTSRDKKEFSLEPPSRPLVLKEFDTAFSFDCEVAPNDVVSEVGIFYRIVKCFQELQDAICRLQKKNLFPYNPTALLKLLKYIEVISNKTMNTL
# UniProt Q9Y333: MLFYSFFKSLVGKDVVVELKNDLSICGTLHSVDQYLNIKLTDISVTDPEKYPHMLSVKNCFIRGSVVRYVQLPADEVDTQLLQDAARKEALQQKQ
# UniProt Q68DH5: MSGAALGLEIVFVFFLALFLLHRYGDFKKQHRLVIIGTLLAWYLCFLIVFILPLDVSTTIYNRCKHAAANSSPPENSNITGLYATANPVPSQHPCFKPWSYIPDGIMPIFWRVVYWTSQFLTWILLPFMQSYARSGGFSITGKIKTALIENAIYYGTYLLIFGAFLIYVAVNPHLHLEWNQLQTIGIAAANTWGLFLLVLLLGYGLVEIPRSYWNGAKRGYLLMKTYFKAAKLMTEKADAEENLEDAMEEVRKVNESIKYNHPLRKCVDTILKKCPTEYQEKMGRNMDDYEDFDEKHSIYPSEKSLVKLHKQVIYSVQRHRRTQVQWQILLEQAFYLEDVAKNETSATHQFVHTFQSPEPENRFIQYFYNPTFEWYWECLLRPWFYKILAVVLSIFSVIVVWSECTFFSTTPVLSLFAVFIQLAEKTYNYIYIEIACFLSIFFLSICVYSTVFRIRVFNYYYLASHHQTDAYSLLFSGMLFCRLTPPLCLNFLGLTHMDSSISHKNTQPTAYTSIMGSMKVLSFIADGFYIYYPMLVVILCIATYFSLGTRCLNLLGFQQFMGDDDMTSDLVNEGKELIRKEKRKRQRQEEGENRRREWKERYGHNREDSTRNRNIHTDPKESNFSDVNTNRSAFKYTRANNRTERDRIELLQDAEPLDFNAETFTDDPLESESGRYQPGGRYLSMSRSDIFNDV
# UniProt Q9BX40: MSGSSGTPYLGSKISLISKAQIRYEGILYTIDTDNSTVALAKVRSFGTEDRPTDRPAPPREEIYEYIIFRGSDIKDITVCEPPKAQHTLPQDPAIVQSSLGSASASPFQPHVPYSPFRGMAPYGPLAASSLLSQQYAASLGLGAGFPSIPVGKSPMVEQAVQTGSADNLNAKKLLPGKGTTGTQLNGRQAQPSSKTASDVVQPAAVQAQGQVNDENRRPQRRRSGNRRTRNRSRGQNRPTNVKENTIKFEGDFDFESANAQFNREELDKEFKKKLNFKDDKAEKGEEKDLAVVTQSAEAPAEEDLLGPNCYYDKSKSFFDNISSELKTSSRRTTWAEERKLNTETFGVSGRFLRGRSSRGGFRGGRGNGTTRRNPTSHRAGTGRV
# UniProt O95777: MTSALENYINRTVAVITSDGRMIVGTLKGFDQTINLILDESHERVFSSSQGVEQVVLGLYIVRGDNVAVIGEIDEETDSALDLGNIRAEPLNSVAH
# UniProt Q5TKA1: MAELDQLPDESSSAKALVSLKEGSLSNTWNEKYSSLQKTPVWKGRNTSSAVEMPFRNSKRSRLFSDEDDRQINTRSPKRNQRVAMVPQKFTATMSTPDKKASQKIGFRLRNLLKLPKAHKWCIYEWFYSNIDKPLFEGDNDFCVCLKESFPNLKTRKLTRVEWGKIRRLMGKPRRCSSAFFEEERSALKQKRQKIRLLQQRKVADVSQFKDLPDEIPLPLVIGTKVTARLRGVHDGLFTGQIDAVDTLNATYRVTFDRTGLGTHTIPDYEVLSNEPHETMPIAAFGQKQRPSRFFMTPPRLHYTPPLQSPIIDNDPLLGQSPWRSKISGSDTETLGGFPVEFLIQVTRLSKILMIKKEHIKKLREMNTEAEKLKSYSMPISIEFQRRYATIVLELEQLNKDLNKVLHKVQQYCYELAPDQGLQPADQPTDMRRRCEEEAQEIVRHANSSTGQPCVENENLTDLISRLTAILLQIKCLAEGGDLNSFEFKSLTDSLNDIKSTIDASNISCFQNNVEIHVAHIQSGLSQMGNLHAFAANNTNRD
# Experiments:
# Test in all cases: log2 fold change, soluble protein after heating vs DMSO (PISA); higher = thermal stabilisation; K562 lysate, 10 uM; active = over 0.2 and 3.5 SD of the protein, either way, in both replicates (recomputed)
# [1] = compound: Cc1cn(-c2cc(NC(=O)c3ccc(C)c(Nc4nccc(-c5cccnc5)n4)c3)cc(C(F)(F)F)c2)cn1 [nilotinib]
# Outline: (§1)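 To prepare the extract, K562 pellets were dounce-homogenised in PBS pH 7.4 with 1 mM MgCl2, giving crude material at 1 mg/mL protein. This was treated with 10 μM compound for 30 min, then heated in aliquots for 3 min over 48°C-58°C before pooling and addition of NP-40 to 0.5% at 4°C. Centrifugation at 21,000xg for 90 min left soluble protein in the supernatant, which TMTpro 16plex LC-MS/MS quantified with equalised channel sums. Results are log-two fold changes in thermal stability compared with solvent controls, from duplicates.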
# [2] = compound: Cc1nc(Nc2n[nH]c3c2CN(C(=O)N[C@H](CN(C)C)c2ccccc2)C3(C)C)c2sccc2n1
# Outline: as §1
# [3] = compound: Cc1nc(Nc2ncc(C(=O)Nc3c(C)cccc3Cl)s2)cc(N2CCN(CCO)CC2)n1 [dasatinib]
# Outline: as §1
# [4] = compound: Cc1ncc(-c2ccnc(Nc3ccc(S(C)(=O)=O)cc3)n2)n1C(C)C
# Outline: as §1
# [5] = compound: Cn1cc(-c2ccc3c(c2)CCN3C(=O)Cc2cccc(C(F)(F)F)c2)c2c(N)ncnc21
# Outline: as §1
# [6] = compound: Cn1cc(CNCC2CCN(c3ncc(C(=O)NO)cn3)CC2)c2ccccc21 [quisinostat]
# Outline: as §1
# [7] = compound: Cn1cncc1[C@@](N)(c1ccc(Cl)cc1)c1ccc2c(c1)c(-c1cccc(Cl)c1)cc(=O)n2C [tipifarnib]
# Outline: as §1
# [8] = compound: NC(=O)Nc1cc(-c2cccc(F)c2)sc1C(=O)N[C@H]1CCCNC1
# Outline: as §1
# [9] = compound: NC(=O)c1cnc(N[C@@H]2CCCC[C@@H]2N)nc1Nc1cccc(-n2nccn2)c1
# Outline: as §1
# [10] = compound: NC1(c2ccc(-c3nc4ccn5c(=O)[nH]nc5c4cc3-c3ccccc3)cc2)CCC1
# Outline: as §1
# [11] = compound: NCC(=O)Nc1ccc(-n2nc(C(F)(F)F)cc2-c2ccc3c(ccc4ccccc43)c2)cc1
# Outline: as §1
# [12] = compound: O=C(CCCCCCC(=O)Nc1ccccc1)NO [vorinostat]
# Outline: as §1
# [13] = compound: O=C(O)c1ccc2c(c1)nc(Nc1cccc(Cl)c1)c1ccncc12 [silmitasertib]
# Outline: as §1
# [14] = compound: O=C1NC(=O)C(c2cnc3ccccn23)=C1c1cn2c3c(cc(F)cc13)CN(C(=O)N1CCCCC1)CC2
# Outline: as §1
# [15] = compound: c1cn2cc(-c3ccc4cn[nH]c4c3)nc(Nc3ccc(N4CCOCC4)cc3)c2n1 [entospletinib]
# Outline: as §1
Target,log2 fold change [1],log2 fold change [2],log2 fold change [3],log2 fold change [4],log2 fold change [5],log2 fold change [6],log2 fold change [7],log2 fold change [8],log2 fold change [9],log2 fold change [10],log2 fold change [11],log2 fold change [12],log2 fold change [13],log2 fold change [14],log2 fold change [15]
LSM1 (UniProt O15116),inactive: 0.038,inactive: 0.028,inactive: 0.047,inactive: -0.017,inactive: -0.064,inactive: 0.135,inactive: 0.095,inactive: -0.034,inactive: -0.033,inactive: 0.019,inactive: -0.045,inactive: 0.152,inactive: -0.057,inactive: -0.041,inactive: -0.034
LRRC47 (UniProt Q8N1G4),inactive: 0.001,inactive: -0.019,inactive: -0.002,inactive: 0.015,inactive: 0.003,inactive: 0.075,inactive: 0.025,inactive: -0.014,inactive: -0.01,inactive: 0.003,inactive: 0.017,inactive: 0.015,inactive: 0.008,inactive: 0.009,inactive: 0.03
LRCH3 (UniProt Q96II8),inactive: -0.003,inactive: -0.029,inactive: -0.095,inactive: 0.064,inactive: 0.038,inactive: -0.16,inactive: -0.029,inactive: -0.005,inactive: 0.011,inactive: -0.025,inactive: 0.053,active: -0.535,inactive: 0.048,inactive: -0.03,inactive: -0.009
LRRC4B (UniProt Q9NT99),inactive: -0.098,inactive: -0.079,inactive: 0.149,inactive: -0.06,inactive: 0.152,inactive: -0.143,inactive: 0.048,inactive: 0.033,inactive: 0.12,inactive: -0.032,inactive: -0.179,inactive: 0.055,inactive: 0.059,inactive: 0.005,inactive: -0.03
LRRC57 (UniProt Q8N9N7),inactive: 0.004,inactive: 0.004,inactive: 0.01,inactive: -0.023,inactive: -0.004,inactive: -0.023,inactive: 0.002,inactive: -0.07,inactive: 0.014,inactive: 0.032,inactive: 0.002,inactive: -0.144,inactive: 0,inactive: -0.022,inactive: -0.007
LSM3 (UniProt P62310),inactive: -0.022,inactive: 0.023,inactive: 0.041,inactive: 0.001,inactive: -0.049,inactive: 0.003,inactive: -0.032,inactive: -0.019,inactive: 0.031,inactive: -0.035,inactive: 0.019,inactive: 0.135,inactive: -0.018,inactive: -0.005,inactive: -0.061
LCP1 (UniProt P13796),inactive: 0.009,inactive: 0.016,inactive: 0.002,inactive: 0.035,inactive: -0.015,inactive: -0.025,inactive: 0.007,inactive: -0.017,inactive: 0.001,inactive: -0.005,inactive: -0.003,inactive: 0.111,inactive: -0.018,inactive: 0.005,inactive: 0.006
LRRFIP1 (UniProt Q32MZ4),inactive: -0.021,inactive: 0.002,inactive: 0.027,inactive: 0.019,inactive: 0.005,inactive: -0.007,inactive: 0.001,inactive: -0.036,inactive: -0.009,inactive: 0.008,inactive: 0.018,inactive: 0.002,inactive: -0.009,inactive: 0.003,inactive: -0.011
LGALS3 (UniProt P17931),inactive: -0.007,inactive: 0.038,inactive: 0.494,inactive: 0.026,inactive: -0.355,inactive: -0.053,inactive: -0.005,inactive: -0.106,inactive: 0.047,inactive: 0,inactive: -0.027,inactive: 0.121,inactive: -0.145,inactive: 0.074,inactive: 0.247
LIN54 (UniProt Q6MZP7),inactive: 0.043,inactive: -0.112,inactive: -0.089,inactive: 0.073,inactive: -0.122,inactive: -0.018,inactive: -0.083,inactive: 0.075,inactive: 0.001,inactive: 0.075,inactive: 0.053,inactive: -0.088,inactive: -0.051,inactive: -0.053,inactive: -0.027
LRBA (UniProt P50851),inactive: -0.006,inactive: 0.003,inactive: -0.03,inactive: 0.002,inactive: 0.008,inactive: -0.021,inactive: 0.006,inactive: 0.008,inactive: 0.004,inactive: -0.007,inactive: 0.011,inactive: -0.111,inactive: 0.008,inactive: 0,inactive: 0.014
LNPEP (UniProt Q9UIQ6),inactive: 0.029,inactive: 0.002,inactive: 0.033,inactive: 0.03,inactive: -0.014,inactive: -0.046,inactive: 0.007,inactive: -0.009,inactive: -0.009,inactive: -0.019,inactive: 0.001,inactive: 0.102,inactive: 0.002,inactive: -0.005,inactive: 0.017
LINS1 (UniProt Q8NG48),inactive: -0.008,inactive: -0.064,inactive: 0.059,inactive: -0.101,inactive: -0.138,inactive: -0.076,inactive: 0.087,inactive: 0.038,inactive: 0.009,inactive: 0.054,inactive: -0.071,inactive: -0.089,inactive: -0.188,inactive: -0.007,inactive: -0.032
LSM2 (UniProt Q9Y333),inactive: 0,inactive: -0.03,inactive: -0.009,inactive: 0.055,inactive: 0.004,inactive: -0.055,inactive: 0.049,inactive: 0.016,inactive: -0.027,inactive: -0.005,inactive: 0.034,inactive: 0.143,inactive: -0.023,inactive: -0.016,inactive: 0.012
LARS2 (UniProt Q15031),inactive: -0.002,inactive: 0.048,inactive: -0.075,inactive: -0.008,inactive: 0.065,inactive: 0.028,inactive: -0.085,inactive: 0.089,inactive: 0.044,inactive: -0.036,inactive: -0.062,inactive: -0.229,inactive: 0.054,inactive: -0.083,inactive: 0.036
LMBRD2 (UniProt Q68DH5),inactive: -0.08,inactive: -0.02,inactive: 0.005,inactive: 0.024,inactive: 0.044,inactive: -0.119,inactive: -0.047,inactive: 0.015,inactive: 0,inactive: -0.027,inactive: 0.039,inactive: 0.125,inactive: 0.04,inactive: -0.046,inactive: -0.004
LSM14B isoform 2 (UniProt Q9BX40),inactive: -0.034,inactive: 0.024,inactive: -0.001,inactive: 0.032,inactive: 0.029,inactive: -0.012,inactive: -0.054,inactive: 0.031,inactive: 0.032,inactive: 0.068,inactive: -0.04,inactive: -0.093,inactive: -0.008,inactive: -0.047,inactive: -0.015
LIAS (UniProt O43766),inactive: 0,inactive: -0.009,inactive: -0.033,inactive: 0.041,inactive: 0.025,inactive: 0.016,inactive: -0.011,inactive: 0.002,inactive: -0.029,inactive: -0.047,inactive: 0.026,inactive: 0.152,inactive: 0.024,inactive: -0.006,inactive: 0.036
LSM8 (UniProt O95777),inactive: 0.132,inactive: 0,inactive: 0.012,inactive: 0.045,inactive: 0.004,inactive: -0.043,inactive: 0.048,inactive: -0.02,inactive: -0.035,inactive: 0.033,inactive: -0.052,inactive: 0.063,inactive: -0.011,inactive: 0.009,inactive: 0.028
LIN9 isoform 2 (UniProt Q5TKA1),inactive: -0.051,inactive: 0.004,inactive: -0.043,inactive: 0.076,inactive: 0.029,inactive: -0.03,inactive: -0.006,inactive: 0.01,inactive: -0.093,inactive: -0.025,inactive: 0.073,inactive: -0.199,inactive: -0.01,inactive: -0.009,inactive: 0.016
LMAN1 (UniProt P49257),inactive: -0.024,inactive: 0.001,inactive: 0.041,inactive: -0.002,inactive: 0.041,inactive: -0.043,inactive: -0.072,inactive: 0.004,inactive: -0.003,inactive: -0.013,inactive: -0.005,inactive: 0.117,inactive: 0.021,inactive: -0.014,inactive: -0.023

# Another view of some results above.
Target | log2 fold change [1] | log2 fold change [2] | log2 fold change [3] | log2 fold change [4] | log2 fold change [5] | log2 fold change [6] | log2 fold change [7] | log2 fold change [8] | log2 fold change [9] | log2 fold change [10] | log2 fold change [11] | log2 fold change [12] | log2 fold change [13] | log2 fold change [14] | log2 fold change [15]
LCP1 (UniProt P13796) | inactive: 0.009 | inactive: 0.016 | inactive: 0.002 | inactive: 0.035 | inactive: -0.015 | inactive: -0.025 | inactive: 0.007 | inactive: -0.017 | inactive: 0.001 | inactive: -0.005 | inactive: -0.003 | inactive: 0.111 | inactive: -0.018 | inactive: 0.005 | inactive: 0.006
LIN9 isoform 2 (UniProt Q5TKA1) | inactive: -0.051 | inactive: 0.004 | inactive: -0.043 | inactive: 0.076 | inactive: 0.029 | inactive: -0.03 | inactive: -0.006 | inactive: 0.01 | inactive: -0.093 | inactive: -0.025 | inactive: 0.073 | inactive: -0.199 | inactive: -0.01 | inactive: -0.009 | inactive: 0.016

# — the supplement of paper PMC10849652
